Data as given in paper PMC3718702.
These are yes or no findings as the source states them, for the method shown. Binding seen in cells or lysates may run through a third protein. Some results given as binding are weak or reduced against the parent protein; the word gives no strength.

Amino acid sequences for entries named in this document (tags omitted). Residues count along the entry.
UniProt P02769, residues 25-607: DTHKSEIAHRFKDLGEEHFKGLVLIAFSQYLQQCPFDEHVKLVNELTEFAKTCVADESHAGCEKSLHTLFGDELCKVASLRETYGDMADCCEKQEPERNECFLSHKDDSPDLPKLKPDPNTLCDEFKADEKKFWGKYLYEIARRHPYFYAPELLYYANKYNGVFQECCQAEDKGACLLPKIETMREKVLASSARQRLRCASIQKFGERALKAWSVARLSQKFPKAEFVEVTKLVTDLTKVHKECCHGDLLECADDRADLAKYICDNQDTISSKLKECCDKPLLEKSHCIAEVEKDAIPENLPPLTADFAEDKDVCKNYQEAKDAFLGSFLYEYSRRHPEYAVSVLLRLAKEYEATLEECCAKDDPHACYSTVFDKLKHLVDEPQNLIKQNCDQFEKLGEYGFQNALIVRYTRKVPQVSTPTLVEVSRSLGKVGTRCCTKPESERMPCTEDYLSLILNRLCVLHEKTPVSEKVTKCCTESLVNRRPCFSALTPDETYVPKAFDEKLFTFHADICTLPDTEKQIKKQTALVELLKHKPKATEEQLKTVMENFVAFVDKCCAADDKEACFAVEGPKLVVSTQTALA
UniProt P10809, residues 27-573: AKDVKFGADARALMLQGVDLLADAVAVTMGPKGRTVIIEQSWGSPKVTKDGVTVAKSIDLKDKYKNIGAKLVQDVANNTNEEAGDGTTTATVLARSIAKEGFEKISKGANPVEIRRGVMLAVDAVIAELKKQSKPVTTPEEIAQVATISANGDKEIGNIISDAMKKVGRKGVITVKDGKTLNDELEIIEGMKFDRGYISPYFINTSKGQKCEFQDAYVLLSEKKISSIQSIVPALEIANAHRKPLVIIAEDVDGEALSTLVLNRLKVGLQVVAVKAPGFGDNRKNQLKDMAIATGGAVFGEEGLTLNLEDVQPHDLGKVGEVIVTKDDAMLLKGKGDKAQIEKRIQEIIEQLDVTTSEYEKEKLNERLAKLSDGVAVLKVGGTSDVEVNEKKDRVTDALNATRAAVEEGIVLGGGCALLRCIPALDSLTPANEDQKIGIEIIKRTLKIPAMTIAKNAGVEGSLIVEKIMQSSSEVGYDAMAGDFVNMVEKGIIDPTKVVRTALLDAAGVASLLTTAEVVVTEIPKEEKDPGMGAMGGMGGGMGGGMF

Biological target: bovine serum albumin (bovine) (UniProt P02769)
Assay: co-IP; 2 mg lysate of untreated and azacytidine-treated myeloma cells incubated with 6 ug anti-bovine albumin antibody and protein A/G agarose beads overnight at 4°C; three washes with cell lysis buffer; eluate blotted with anti-HSP60

In the case of “60 kDa heat shock protein, mitochondrial (from UniProt P10809 27-573)”, the binding is reported as “binds”.
